## Library screen at single concentrations

Sequences of proteins named here, by UniProt entry; tags and fusion partners are left off. Residues count along the entry.
UniProt Q8IDJ8, 1-583: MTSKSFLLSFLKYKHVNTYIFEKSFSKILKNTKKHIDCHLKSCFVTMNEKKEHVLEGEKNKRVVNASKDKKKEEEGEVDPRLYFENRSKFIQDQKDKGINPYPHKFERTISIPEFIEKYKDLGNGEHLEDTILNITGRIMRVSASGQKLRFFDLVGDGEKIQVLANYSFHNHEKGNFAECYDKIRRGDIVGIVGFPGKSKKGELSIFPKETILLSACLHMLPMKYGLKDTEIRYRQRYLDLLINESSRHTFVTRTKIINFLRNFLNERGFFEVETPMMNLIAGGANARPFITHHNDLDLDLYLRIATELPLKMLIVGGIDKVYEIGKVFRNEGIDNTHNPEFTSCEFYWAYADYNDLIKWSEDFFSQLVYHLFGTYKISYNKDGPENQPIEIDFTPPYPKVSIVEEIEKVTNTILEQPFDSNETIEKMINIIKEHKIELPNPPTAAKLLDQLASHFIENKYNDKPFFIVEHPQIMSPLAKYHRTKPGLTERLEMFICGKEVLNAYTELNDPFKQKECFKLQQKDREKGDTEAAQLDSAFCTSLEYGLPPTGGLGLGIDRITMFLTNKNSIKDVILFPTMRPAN

The filed quantity is “Percent Effect” (%).
The record does not define 0% and 100%; most values in the screen are far below 50% and negative numbers occur (in some assays of this library far below -100).
This is an unselected part of the compounds tested.
A dash means the value is not listed here; it may have been measured.

T. brucei: 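Whole-parasite assay of Trypanosoma brucei over 72 hours; the read-out is not stated. Concentration: 30 µM. The record gives no direction; compounds that gave an IC50 in retests scored well above the rest, so higher reads as stronger inhibition. Values scatter widely below zero; nearly all retest evidence comes from the higher of the two concentrations used. Size under these conditions: about 64,000 compounds, about 940 of them at 50% or above in at least one test.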
PfKRS1: 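Enzyme assay of the cytosolic lysyl-tRNA synthetase in 384-well plates, read by luminescence. Target: Lysine-tRNA ligase, Plasmodium falciparum 3D7 (UniProt Q8IDJ8). Tested at 30 µM. Direction is inferred from only a few compounds that gave an IC50; most scored high, so higher reads as stronger inhibition. About 69,000 compounds were tested under these conditions; 0.071% (about 49) showed 50% or more at least once.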

structure | T. brucei | PfKRS1
Cc1n[nH]c(C2CN(C(=O)c3ccnc(C4CC4)n3)CCO2)n1 (stereo not given) | -1.171 | 2.837
CN(c1ncccc1C#N)C1CCN(CCc2ccncc2)CC1 | -5.163 | 2.093
CC(=O)c1cccc(NC(=O)Cn2cnc(-c3ccccc3)cc2=O)c1 | 6.649 | -1.981
c1nc(N2CCCC2Cn2cncn2)c2sccc2n1 (stereo not given) | - | 0.7128
CCN1C[C@H]2N(c3ncccn3)CCC[C@@]2(C(=O)NCC2CC2)C1 | - | 3.294
O=C(O)C(F)(F)F.[H][C@@]12CCN(S(C)(=O)=O)[C@]1([H])CC[C@@H](C(=O)NCCc1ccccn1)O2 | -0.07578 | -
O=C(O)C(F)(F)F.[H][C@@]12C[C@H](C(=O)NCc3ccco3)CN(C(=O)c3ccncc3)[C@]1([H])CCO2 | -17.54 | -
OCC1(O)CCN(Cc2ccc(C3CCCCO3)o2)CC1 (stereo not given) | 0.1116 | 2.04
COCC1CN(Cc2cc(C)on2)Cc2cn(CC3CCCC3)nc21 (stereo not given) | - | 3.832
CCOc1ccc(CC(=O)N2C[C@H](C3CC3)[C@@H](N)C2)cc1 | -52.81 | 0.4182
Cc1ccc(-c2ccsc2C(=O)NC2CCS(=O)(=O)C2)cc1 (stereo not given) | -13.68 | 3.53
O=C(CCNC(=O)c1ccoc1)Nc1ccc(F)cc1F | 7.411 | 13.48
Cc1nn(C)c2cn(CC(=O)N3CCN(c4ccccn4)CC3)nc12 | -52.9 | 0.5715
Cc1cc(C2CCCN(C(=O)c3c(C)noc3C)C2)n[nH]1 (stereo not given) | 28.36 | -1.66
Cc1cc(CNC(=O)N2CCN(Cc3ccccc3)C[C@H]2C)on1 | -3.188 | 4.863
Cc1cc(NC(=O)NCc2ccc(S(=O)(=O)N3CCCC3)s2)no1 | -4.455 | 3.947
O=S1(=O)C[C@@H]2[C@H](C1)N(Cc1ccc3ccccc3c1)CCN2CC1CC1 | - | 4.004
COCC(=O)NCC1Cn2nnc(-c3ccncc3)c2CO1.O=C(O)C(F)(F)F (stereo not given) | -30.13 | -
CC1CCCCN1C(=O)c1nc2c(n1C(C)C)CCN(C(=O)C1CC1)C2 (stereo not given) | -60.98 | 2.605
CC(c1ccncc1)N(CCN(C)C)C(=O)Nc1ccc(Cl)c(Cl)c1 (stereo not given) | -28.24 | 3.808
Cc1cccc(S(=O)(=O)N2C[C@@H]3C[C@@H](c4nnc(C)[nH]4)O[C@@H]3C2)c1 | - | 6.05
Cc1cccc(C(=O)N2CCc3ncnc(C4CCOC4)c3CC2)n1 (stereo not given) | - | -1.13
[H][C@]12CCC(=O)N(CC)[C@@]1(C)CCCCN2C(=O)CCn1nccc1C | -10.38 | -
CN(CCCc1nccn1C)C(=O)C1CCN(C(=O)C2CCC2)CC1 | -13.58 | 3.89
CCSCCC(C)N(C)C(=O)c1cc(C)on1 (stereo not given) | -9.256 | 5.097
Fc1cccnc1O[C@@H]1CN(Cc2ccccn2)[C@@H]2CCCO[C@@H]21 | - | 3.136
CCn1ncc(Br)c1CN(C)S(=O)(=O)c1ccc(C)cc1 | 7.106 | 3.221
O=C(NCC1CCOCC1)[C@H]1C[C@@H]2CCN(c3nncs3)C[C@@H]2O1 | - | 1.945
O=C(O)C(F)(F)F.[H][C@@]12CCCO[C@]1([H])[C@H](NC(=O)c1cnccn1)CN(c1ncccn1)C2 | 3.351 | -
Cc1nc(CN2CCCC(Cn3cncn3)C2)no1 (stereo not given) | -15.57 | 0.1929
NC(=O)c1cc(C2CCCN(C(=O)CCc3cscn3)C2)n[nH]1 (stereo not given) | 10.22 | -0.1275
CN(C)CCNC(=O)Nc1cccc(C[S+]([O-])Cc2ccccc2)c1 (stereo not given) | 6.26 | 8.366
COCCCn1cnnc1CNc1cc(C)nc2ccnn12 | -54.14 | 3.533
CC1CN(c2ncnc3cccc(F)c23)CCO1 (stereo not given) | -3.905 | 7.759
Cc1nc(C(C)C)sc1C(=O)N(C)CCCc1cnn(C)c1 | -39.37 | 6.603
CC(C)N1CCC2(CCCNC2)C1=O (stereo not given) | - | 0.138
O=C(O)C(F)(F)F.c1cncc(-c2ccc3c(c2)C2(CC3)CCN(c3nncs3)CC2)c1 | 17.87 | -
[H][C@@]12COC[C@]1(CNS(C)(=O)=O)CN(C(=O)C1CC(F)(F)C1)C2 | -37.53 | -
Cn1ccnc1-c1ccccc1C(=O)N1CCc2c(nc(N)[nH]c2=O)C1 | 31.73 | 3.983
Cc1nc(CCNC(=O)C2CC(=O)N(C(C)C)C2)sc1C (stereo not given) | -27.27 | 5.175
O=C(NCc1ccc(C(=O)O)o1)c1ccc(F)cc1 | -0.9936 | 0.1352
CCc1nnc(C(C)N2CCN(CCC(C)(C)C)CC2)o1 (stereo not given) | -15.8 | -2.907
CCN(CC)C(CNC(=O)CCc1nc(C(C)C)no1)c1ccco1 (stereo not given) | -49.17 | -2.666
O=C(O)C(F)(F)F.O=C(O)C(F)(F)F.[H][C@@]12CN(Cc3ccsc3)CCC[C@]1(C(=O)OCC)CN(CCOC)C2 | -108.4 | -
COc1cc2c(cc1OC)S(=O)(=O)N(Cc1ccc(C)cc1)C2=O | 15.67 | -1.416
CN(CCC#N)C(=O)CSc1cc(F)ccc1F | -17.97 | 1.178
CC(C)(N)CNS(=O)(=O)Cc1cccc2cccnc12.Cl | -30.51 | -
CNC(=O)[C@@H](CC(C)C)N1CCC[C@H]1C(=O)N(C)Cc1ccccc1 | - | 5.1
CCCS(=O)(=O)CC(=O)N1CCN(CC2CC2)c2ccccc21 | 6.419 | 7.843
Cc1cccc(-n2c(C)cc(C(=O)NS(C)(=O)=O)c2C)c1 | - | 0.01315
CCC(=O)N1CCc2[nH]cnc2C12CCN(C1CCOCC1)CC2 | -17.06 | -0.5785
COCCNC(=O)C[C@@H]1COC[C@H]2CN(C(=O)C3CCOCC3)C[C@@H]12 | - | 1.84
O=C(NCCN1CCCS1(=O)=O)c1scnc1Cl | 9.638 | 0.807
O=C(O)C(F)(F)F.O=C(c1ccco1)N1CCCC12CCN(c1ncccn1)CC2 | 9.077 | -
Cc1noc(C)c1CN1CC[C@H]2OCC[C@@]2(C(=O)N(C)C)C1 | - | 4.961
O=C(NCC1CC1)[C@H]1C[C@@H]2[C@@H](C1)OCCN2Cc1cccnc1 | - | -3.987
COc1ccc(C2CCCN2C(=O)NCCCn2cccn2)cc1 (stereo not given) | 8.864 | 1.738
O=C(O)C(F)(F)F.[H][C@]12CCC[C@@]1(COCC1CCOCC1)CN(C(=O)c1ccccn1)C2 | 14.59 | -
O=C(CN1CCCC1Cn1cncn1)NCC1(c2ccccc2)CC1 (stereo not given) | -24.47 | 1.466
[H][C@@]12CCCC[C@]1(O)CCN(C(=O)OC)[C@H]2c1ccc2c(c1)OCO2 | -33.96 | -
CN1CC[C@H]2OCC[C@@H](C(=O)NCc3ccco3)[C@@H]2C1 | - | 1.302
CCC1=NN2C(=N)/C(=C\c3cccn3-c3ccc(Cl)cc3)C(=O)N=C2S1 | -6.941 | 1.062
CCC(=O)N1CCN(C(=O)c2ccc(COC)o2)[C@H]2CS(=O)(=O)C[C@H]21 | - | 1.618
O=C1CCSCC(C(=O)NCc2nc(-c3ccccc3)no2)N1 (stereo not given) | -6.391 | 3.3
Cc1ncn(-c2cc(N3CCN(S(C)(=O)=O)CC3)ncn2)c1C | -27.23 | 0.71
O=C(CCn1ccccc1=O)N1CCCC(COc2ccc(F)cc2)C1 (stereo not given) | -67.82 | 0.1057

The first 5 entries again:

| structure | T. brucei | PfKRS1 |
|---|---|---|
| `Cc1n[nH]c(C2CN(C(=O)c3ccnc(C4CC4)n3)CCO2)n1` (stereo not given) | -1.171 | 2.837 |
| `CN(c1ncccc1C#N)C1CCN(CCc2ccncc2)CC1` | -5.163 | 2.093 |
| `CC(=O)c1cccc(NC(=O)Cn2cnc(-c3ccccc3)cc2=O)c1` | 6.649 | -1.981 |
| `c1nc(N2CCCC2Cn2cncn2)c2sccc2n1` (stereo not given) | - | 0.7128 |
| `CCN1C[C@H]2N(c3ncccn3)CCC[C@@]2(C(=O)NCC2CC2)C1` | - | 3.294 |

Source: ChEMBL document CHEMBL3988442, “University of Dundee, Small-Polar-MMV Screening Library” (2021).